{"sequences": {"note": "The chains behind the UniProt entries cited, without tags or fusion partners.", "UniProt P27695, whole entry, looked up": "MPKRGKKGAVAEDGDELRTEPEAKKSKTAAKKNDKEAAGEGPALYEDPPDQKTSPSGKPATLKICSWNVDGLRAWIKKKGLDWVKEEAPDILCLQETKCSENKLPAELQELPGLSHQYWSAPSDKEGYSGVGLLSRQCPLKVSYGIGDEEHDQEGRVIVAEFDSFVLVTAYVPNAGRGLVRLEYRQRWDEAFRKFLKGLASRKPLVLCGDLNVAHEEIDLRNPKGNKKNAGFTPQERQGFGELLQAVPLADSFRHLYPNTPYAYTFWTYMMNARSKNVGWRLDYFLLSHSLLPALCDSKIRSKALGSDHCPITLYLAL"}, "source": "PubChem BioAssay AID2517", "about": "(National Center for Advancing Translational Sciences (NCATS), 2010)", "note": "Among all 350,000 compounds or so, about 1,200 (0.34%) were called active. The inconclusive results got no clear call from the source; some entries with a clear call stand among them for comparison. Calls come from the whole dose curve; as a rule, active = well fitted inhibition curve with a large enough effect; inconclusive = small, poorly fitted or top-dose-only effect; inactive = no such curve, though single readings can be large or run the other way. Potencies beside an inconclusive call are fits to weak or partial responses and may not hold up. Residues, ends and D or L forms follow the SMILES beside them. *: point of attachment. OBn = c1ccc(CO*)cc1"}
{"biological_target": "DNA repair nuclease/redox regulator APEX1 (Homo sapiens) (UniProt P27695)", "experiment": "qHTS Assay for Inhibitors of the Human Apurinic/apyrimidinic Endonuclease 1 (APE1); note: nearly all actives have a fitted effect of over 55% in size; note: potency is the fitted concentration of half-maximal effect;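 for activity change, negative = inhibition: plate controls were vehicle for no effect and reference inhibitor for full effect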", "settings": "recombinant APE1, TAMRA/BHQ-2 abasic DNA cleavage fluorescence; activity change, negative = inhibition: at 65.8 µM (top of the series)", "summary_of_the_method": "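0.75 nM APE1 + cpd, 15 min RT; start w/ 50 nM TAMRA/BHQ-2 THF-abasic dsDNA; kinetic fluor 525/598 nm ×3 reads @60 s; Δ(read3−read1); normalized to DMSO and NSC13755 control wells.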"}
{"smiles": "COc1ccc(OCC(=O)N/N=C(\\C)CC(=O)Nc2cccc([N+](=O)[O-])c2)cc1", "Potency": "inconclusive: 35.5 µM [inhibitor, single point]"}
{"smiles": "O=C1/C(=C/c2ccc(O)c(O)c2)Oc2cc(O)ccc21", "Potency": "inconclusive: 22.4 µM [inhibitor, partial curve]"}
{"smiles": "CCCOC(=O)CSC1=C(C#N)C(c2ccccc2OC)C(C#N)C(=O)N1", "note": "(stereo not drawn)", "Potency": "inconclusive: 35.5 µM [inhibitor, single point]"}
{"smiles": "CC(=O)c1cccc(OCC(=O)N(C)CC(=O)NCc2ccco2)c1", "Potency": "active: 9.47 µM"}
{"smiles": "O=C(Nc1ccc(Nc2ccncc2)cc1)c1ccc(Nc2ccnc3ccc([N+](=O)[O-])cc23)cc1", "Potency": "inconclusive: 3.98 µM [inhibitor, partial curve]"}
{"smiles": "CCC(=O)N/N=C/c1ccc(-c2ccc([N+](=O)[O-])cc2)o1", "Potency": "inconclusive: 1 µM [inhibitor, full curve, poor fit]"}
{"smiles": "C[C@@H](c1ccccc1)N1C(=O)[C@H]2[C@H]3[C@H](O)[C@H](O)C/C(=N/NC(=O)OCc4ccccc4)[C@@H]3CC[C@@H]2C1=O", "activity change, negative = inhibition": "inactive: 8.55% [at 12.4 µM]"}
{"smiles": "CN(C)CCOc1ncnc2c1oc1ccccc12", "activity change, negative = inhibition": "inactive: -2.59%"}
{"smiles": "N/C(=N\\OC(=O)Nc1ccccc1)c1ccno1", "Potency": "inconclusive: 22.4 µM [inhibitor, partial curve]"}
{"smiles": "NCCCC[C@H](N)C(=O)N[C@@H](CCCN=C(N)N)C(=O)N1CCC[C@H]1C(=O)N1CCC[C@H]1C(=O)NCC(=O)N[C@@H](Cc1ccccc1)C(=O)N[C@@H](CO)C(=O)N1CCC[C@H]1C(=O)N[C@@H](Cc1ccccc1)C(=O)O", "activity change, negative = inhibition": "inactive: -3.51%"}
{"smiles": "CCc1cc(C(=O)NCCN(C)C)cs1", "Potency": "inconclusive: 0.1 µM [inhibitor, full curve, poor fit]"}
{"smiles": "Cc1cc(C)c(-c2cc([C@H](C)O/N=C3/[C@H]4OC4[C@@H](O)[C@H]4[C@H]3CCn3c(=O)n(-c5ccccc5)c(=O)n34)on2)c(C)c1", "note": "(stereo partly drawn)", "activity change, negative = inhibition": "inactive: 23.6% [at 12.4 µM]"}
{"smiles": "c1ccc(-c2ccncc2)nc1", "activity change, negative = inhibition": "inconclusive: 11.7% [inhibitor]"}
{"smiles": "CO[C@H]1COC(=O)CCC[C@H](C)[C@H](OC)COC(=O)C/C=C\\[C@@H]1C", "Potency": "inconclusive: 7.94 µM [inhibitor, single point]"}
{"smiles": "Cc1ccc2nc(SCC(=O)Nc3ccc(F)cc3)nc(=O)n2c1", "activity change, negative = inhibition": "inactive: 16.2%"}
{"smiles": "N#Cc1cn(CCOc2ccc(F)cc2)c2ccccc12", "activity change, negative = inhibition": "inactive: -6.36%"}
{"smiles": "O=C1c2ccccc2NC(c2ccc(-c3ccc(C(F)(F)F)cc3)o2)N1O", "note": "(stereo not drawn)", "Potency": "inconclusive: 29.9 µM [inhibitor, single point]"}
{"smiles": "COC(=O)C1=C[C@@H](C(=O)OC)C2C3=C(C(=O)[C@]2(CC(C)C)NC(=O)c2ccccc2)[C@H](C)n2c(=O)n(C)c(=O)n2[C@@H]3C1", "note": "(stereo partly drawn)", "Potency": "inconclusive: 28.2 µM [inhibitor, partial curve, poor fit]"}
{"smiles": "CCc1c(-c2ccccc2)[n+](=O)c2c(n1[O-])CCC2", "Potency": "inconclusive: 3.16 µM [inhibitor, single point]"}
{"smiles": "COCCNC(=O)C(c1ccc(C)o1)N(Cc1ccc(F)cc1)C(=O)Cn1nnc2ccccc21", "note": "(stereo not drawn)", "Potency": "inconclusive: 0.794 µM [inhibitor, single point]"}
{"smiles": "O=C(O)Cc1ccc(NC(=O)C2CC=CCC2C(=O)O)cc1", "note": "(stereo not drawn)", "Potency": "active: 20 µM"}
{"smiles": "CC1O[C@@H](OC2C(COC3OC(CO)C(O)[C@H](O)C3O)OC(OC3CC[C@]4(C)C(CC[C@@]5(C)[C@@H]4CC=C4[C@@H]6CC(C)(C)CC[C@]6(CO)C(O)C[C@]45C)C3(C)C)C(O)C2O)C(O)C(O)C1O", "note": "(stereo partly drawn)", "activity change, negative = inhibition": "inactive: -19%"}
{"smiles": "CCOc1ccc(N(CC(=O)N/N=C/c2cc([N+](=O)[O-])ccc2Cl)S(C)(=O)=O)cc1", "Potency": "inconclusive: 5.01 µM [inhibitor, full curve]"}
{"smiles": "C#CCOCCOCCOCCNc1nc(N2CCN(C(=O)Cn3cc(CC(C)O)nn3)CC2)nc(N2CCN(C(=O)[C@H](CCCCN)n3cc(CCC(=O)O)nn3)CC2)n1", "note": "(stereo partly drawn)", "Potency": "inconclusive: 3.98 µM [inhibitor, single point]"}
{"smiles": "O=C(Nc1cccc(-n2cnnn2)c1)c1ccc(Cl)cc1Cl", "activity change, negative = inhibition": "inactive: 53.5%"}
{"smiles": "O=C1ON=C(c2ccccc2)/C1=C\\c1ccco1", "Potency": "inconclusive: 25.1 µM [inhibitor, single point]"}
{"smiles": "O=C(COc1ccc2oc(-c3ccccc3)cc(=O)c2c1)NCc1ccco1", "Potency": "inconclusive: 39.8 µM [inhibitor, single point]"}
{"smiles": "Cc1ccccc1C1NC(=S)NC2=C1C(=O)CCC2", "note": "(stereo not drawn)", "Potency": "inconclusive: 44.7 µM [inhibitor, single point]"}
{"smiles": "O=C1CN(C(=O)CSc2nc3ccccc3n2CCc2ccccc2)c2ccccc2N1", "Potency": "inconclusive: 39.8 µM [inhibitor, single point]"}
{"smiles": "COc1ccc(NC(=O)C(CCSC)NC(N)=O)cc1NS(=O)(=O)c1ccc(F)cc1", "note": "(stereo not drawn)", "Potency": "inconclusive: 15.8 µM [inhibitor, partial curve, poor fit]"}
{"smiles": "NS(=O)(=O)c1ccc(NC(=O)c2ccc(COc3ccccc3)o2)cc1", "activity change, negative = inhibition": "inactive: 5.78%"}
{"smiles": "CCOC(=O)c1c(-c2ccc(OC)cc2)csc1NC(=O)COc1ccc2c(C)cc(=O)oc2c1", "Potency": "inconclusive: 1.41 µM [inhibitor, full curve, poor fit]"}
{"smiles": "CCOC(=O)C1=C(C)N(c2ccccc2)C(=O)/C1=C\\c1ccc(O)c(OC)c1", "activity change, negative = inhibition": "inactive: -2.62%"}
{"smiles": "O=C(/C=C/c1ccco1)N1CCN(S(=O)(=O)c2cccs2)CC1", "Potency": "inconclusive: 28.2 µM [inhibitor, single point]"}
{"smiles": "S=C(Nc1cccc(Br)c1)c1ccccc1", "Potency": "inconclusive: 10 µM [inhibitor, partial curve]"}
{"smiles": "COc1cc(OC)cc(C(=O)NCCSCc2ccco2)c1", "Potency": "inconclusive: 100 µM [inhibitor, partial curve, poor fit]"}
{"smiles": "O=C(O)CCNC(=O)/C(=C/C=C/c1ccccc1)NC(=O)c1ccccc1", "Potency": "inconclusive: 39.8 µM [inhibitor, single point]"}
{"smiles": "CC(=O)OC[C@@H]1O[C@H](C/C=N\\O[C@@H](C)c2cn([C@H]3COC[C@H]3O)nn2)C=C[C@@H]1OC(C)=O", "Potency": "inconclusive: 7.94 µM [inhibitor, single point]"}
{"smiles": "Cn1c(SCC(=O)N2CCN(c3ccccc3)CC2)nnc1-c1ccco1", "Potency": "inconclusive: 39.8 µM [inhibitor, single point]"}
{"smiles": "COc1cc(C(c2sc3nc(C)nn3c2O)N2CCC3(CC2)OCCO3)cc(OC)c1OC", "note": "(stereo not drawn)", "activity change, negative = inhibition": "inactive: 0.249%"}
{"smiles": "O=C(Cc1cccs1)Nc1ccc(Cl)cc1", "activity change, negative = inhibition": "inactive: -1.11%"}
{"smiles": "Cc1cc(N)n(-c2ccc(C)c(C)c2)n1", "Potency": "inconclusive: 44.7 µM [inhibitor, single point]"}
{"smiles": "COC(=O)c1ccccc1NC(=O)COC(=O)c1ccccc1N=Nc1ccc(N(C)C)cc1", "activity change, negative = inhibition": "inactive: -0.156%"}
{"smiles": "O=C(Cc1ccc(-n2cccc2)cc1)N1CCN(c2ccccc2F)CC1", "Potency": "inconclusive: 44.7 µM [inhibitor, single point]"}
{"smiles": "Cc1cc(NC(=O)COc2cccc(C)c2C)no1", "activity change, negative = inhibition": "inactive: 0.0865%"}
{"smiles": "N#Cc1ncc(C(F)(F)F)cc1Oc1cccnc1", "Potency": "inconclusive: 39.8 µM [inhibitor, single point]"}
{"smiles": "Cc1cc(C(=O)COC(=O)c2cc(Cl)c(O)c(Cl)c2)c(C)n1C", "activity change, negative = inhibition": "inactive: -21.9%"}
{"smiles": "O=C(CCS(=O)(=O)c1ccc(Br)cc1)NCc1cccs1", "Potency": "inconclusive: 17.8 µM [inhibitor, partial curve]"}
{"smiles": "O=S(=O)(NC1CC1)c1ccc(S(=O)(=O)N2CCCc3ccccc32)cc1", "Potency": "inconclusive: 39.8 µM [inhibitor, partial curve, poor fit]"}
{"smiles": "CCOC(=O)c1[nH]c(C)c(C(=O)OCC(=O)NCc2ccc(OC)c(OC)c2)c1C", "activity change, negative = inhibition": "inactive: 39.2%"}
{"smiles": "O=C(C(=O)N1CCN(c2ccc(F)cc2)CC1)N1CCCCC1", "Potency": "inconclusive: 0.316 µM [inhibitor, full curve, poor fit]"}
{"smiles": "COc1ccccc1C(C[N+](=O)[O-])c1c(N)n(C)c(=O)n(C)c1=O", "note": "(stereo not drawn)", "activity change, negative = inhibition": "inactive: -2.04%"}
{"smiles": "COc1ccc2c(c1)nc(SCC(=O)c1ccc(Br)s1)n2C", "Potency": "inconclusive: 0.01 µM [inhibitor, full curve, poor fit]"}
{"smiles": "CC(=O)NCC(=O)N[C@@H](CC(=O)OCc1ccccc1)C(=O)OCc1ccccc1", "note": "(Ac-Gly-Asp(OBn)-OBn)", "Potency": "inconclusive: 3.16 µM [inhibitor, partial curve]"}
{"smiles": "CCCCC1=CC2=C(c3ccco3)C(=O)C(C)(OC(=O)c3ccc(OC)cc3)C(=O)C2=CN1Cc1ccc(OC)cc1", "note": "(stereo not drawn)", "Potency": "inactive"}
{"smiles": "NC(=O)C1CCN(c2nc(-c3cccc([N+](=O)[O-])c3)cs2)CC1", "activity change, negative = inhibition": "inactive: -8.01%"}
{"smiles": "CC1OC(OCC2OC(Oc3c(-c4ccc(O)c(O)c4)oc4cc(O)cc(O)c4c3=O)C(O)C(O)C2O)C(O)C(O)C1O", "note": "(stereo not drawn)", "Potency": "inconclusive: 14.1 µM [inhibitor, partial curve]"}
{"smiles": "CCOC(=O)C(=CNc1cccnc1Oc1ccc(C)c2c1CCC2)C(=O)OCC", "Potency": "inconclusive: 3.98 µM [inhibitor, single point]"}
{"smiles": "CCCCNC(=O)CN1C(=O)NC2(CCCc3ccccc32)C1=O", "note": "(stereo not drawn)", "activity change, negative = inhibition": "inactive: 1.56%"}
{"smiles": "COC(=O)N1[C@H](C)C=C[C@]1(Cc1ccccc1)C(=O)NCCCNc1ncc(C(F)(F)F)cc1Cl", "Potency": "inconclusive: 35.5 µM [inhibitor, single point]"}
{"smiles": "Nc1cccc(Oc2ccc3c(c2)C(=O)NC3=O)c1", "activity change, negative = inhibition": "inactive: -12.6%"}
{"smiles": "Cn1c(N)c(C(=O)COC(=O)C2CCCN2C(=O)c2cccs2)c(=O)n(C)c1=O", "note": "(stereo not drawn)", "Potency": "inconclusive: 10 µM [inhibitor, partial curve, poor fit]"}
{"smiles": "Cc1nn(Cc2ccccc2)c(C)c1C(=O)Nc1ccc(N2CCOCC2)cc1", "Potency": "inconclusive: 6.31 µM [inhibitor, single point]"}
